In patent US12729225B2, “Non-canonical SWI/SNF complex and uses thereof” (Dana-Farber Cancer Institute, Inc., priority 2018, dated 2026) one finds Total and Unique data, which are given here for 7 molecules.

For this data set, the system named is mSWI/SNF complexes. Nature of the data set: mSWI/SNF complex purification with HA-tagged baits and mass spectrometry (peptide counts). Also noted: species or system human. Particulars: 293_HA-BRD7 bait purification, mass spectrometry; for Total: total peptides per co-purified protein; for Unique: unique peptides per co-purified protein.

B1: TMEM165 (protein, UniProt Q9HC07 34-324, looked up)
Putative divalent …: GPDEDLSHRNKEPPAPAQQLQPQPVAVQGPEPARVEKIFTPAAPVHTNKEDPATQTNLGFIHAFVAAISVIIVSELGDKTFFIAAIMAMRYNRLTVLAGAMLALGLMTCLSVLFGYATTVIPRVYTYYVSTVLFAIFGIRMLREGLKMSPDEGQEELEEVQAELKKKDEEFQRTKLLNGPGDVETGTSITVPQKKWLHFISPIFVQALTLTFLAEWGDRSQLTTIVLAAREDPYGVAVGGTVGHCLCTGLAVIGGRMIAQKISVRTVTIIGGIVFLAFAFSALFISPDSGF
Molecule B1 returned a Total of 1 and a Unique of 1.

B2: HSDL2 (protein, UniProt Q6YN16 1-418, looked up)
Hydroxysteroid …: MLPNTGRLAGCTVFITGASRGIGKAIALKAAKDGANIVIAAKTAQPHPKLLGTIYTAAEEIEAVGGKALPCIVDVRDEQQISAAVEKAIKKFGGIDILVNNASAISLTNTLDTPTKRLDLMMNVNTRGTYLASKACIPYLKKSKVAHILNISPPLNLNPVWFKQHCAYTIAKYGMSMYVLGMAEEFKGEIAVNALWPKTAIHTAAMDMLGGPGIESQCRKVDIIADAAYSIFQKPKSFTGNFVIDENILKEEGIENFDVYAIKPGHPLQPDFFLDEYPEAVSKKVESTGAVPEFKEEKLQLQPKPRSGAVEETFRIVKDSLSDDVVKATQAIYLFELSGEDGGTWFLDLKSKGGNVGYGEPSDQADVVMSMTTDDFVKMFSGKLKPTMAFMSGKLKIKGNMALAIKLEKLMNQMNARL
In the case of B2, the Total came out at 1 and the Unique was 1.

B3: SCAMP3 (protein, UniProt O14828 1-347, looked up)
Secretory carrier-associated …: MAQSRDGGNPFAEPSELDNPFQDPAVIQHRPSRQYATLDVYNPFETREPPPAYEPPAPAPLPPPSAPSLQPSRKLSPTEPKNYGSYSTQASAAAATAELLKKQEELNRKAEELDRRERELQHAALGGTATRQNNWPPLPSFCPVQPCFFQDISMEIPQEFQKTVSTMYYLWMCSTLALLLNFLACLASFCVETNNGAGFGLSILWVLLFTPCSFVCWYRPMYKAFRSDSSFNFFVFFFIFFVQDVLFVLQAIGIPGWGFSGWISALVVPKGNTAVSVLMLLVALLFTGIAVLGIVMLKRIHSLYRRTGASFQKAQQEFAAGVFSNPAVRTAAANAAAGAAENAFRAP
B3 gave a Total of 1 and a Unique of 1.

B4: NAT10 (protein, UniProt Q9H0A0 1-1025, looked up)
RNA cytidine acetyltransferase: MHRKKVDNRIRILIENGVAERQRSLFVVVGDRGKDQVVILHHMLSKATVKARPSVLWCYKKELGFSSHRKKRMRQLQKKIKNGTLNIKQDDPFELFIAATNIRYCYYNETHKILGNTFGMCVLQDFEALTPNLLARTVETVEGGGLVVILLRTMNSLKQLYTVTMDVHSRYRTEAHQDVVGRFNERFILSLASCKKCLVIDDQLNILPISSHVATMEALPPQTPDESLGPSDLELRELKESLQDTQPVGVLVDCCKTLDQAKAVLKFIEGISEKTLRSTVALTAARGRGKSAALGLAIAGAVAFGYSNIFVTSPSPDNLHTLFEFVFKGFDALQYQEHLDYEIIQSLNPEFNKAVIRVNVFREHRQTIQYIHPADAVKLGQAELVVIDEAAAIPLPLVKSLLGPYLVFMASTINGYEGTGRSLSLKLIQQLRQQSAQSQVSTTAENKTTTTARLASARTLYEVSLQESIRYAPGDAVEKWLNDLLCLDCLNITRIVSGCPLPEACELYYVNRDTLFCYHKASEVFLQRLMALYVASHYKNSPNDLQMLSDAPAHHLFCLLPPVPPTQNALPEVLAVIQVCLEGEISRQSILNSLSRGKKASGDLIPWTVSEQFQDPDFGGLSGGRVVRIAVHPDYQGMGYGSRALQLLQMYYEGRFPCLEEKVLETPQEIHTVSSEAVSLLEEVITPRKDLPPLLLKLNERPAERLDYLGVSYGLTPRLLKFWKRAGFVPVYLRQTPNDLTGEHSCIMLKTLTDEDEADQGGWLAAFWKDFRRRFLALLSYQFSTFSPSLALNIIQNRNMGKPAQPALSREELEALFLPYDLKRLEMYSRNMVDYHLIMDMIPAISRIYFLNQLGDLALSAAQSALLLGIGLQHKSVDQLEKEIELPSGQLMGLFNRIIRKVVKLFNEVQEKAIEEQMVAAKDVVMEPTMKTLSDDLDEAAKEFQEKHKKEVGKLKSMDLSEYIIRGDDEEWNEVLNKAGPNASIISLKSDKKRKLEAKQEPKQSKKLKNRETKNKKDMKLKRKK
B4 gave a Total of 1 and a Unique of 1.

B5: EEF1B2 (protein, UniProt P24534 2-225, looked up)
Elongation factor 1-beta: GFGDLKSPAGLQVLNDYLADKSYIEGYVPSQADVAVFEAVSSPPPADLCHALRWYNHIKSYEKEKASLPGVKKALGKYGPADVEDTTGSGATDSKDDDDIDLFGSDDEEESEEAKRLREERLAQYESKKAKKPALVAKSSILLDVKPWDDETDMAKLEECVRSIQADGLVWGSSKLVPVGYGIKKLQIQCVVEDDKVGTDMLEEQITAFEDYVQSMDVAAFNKI
On to B5, for which the Total is 1 and the Unique was found to be 1.

B6: DHX30 (protein, UniProt Q7L2E3 1-1194, looked up)
ATP-dependent RNA helicase …: MFSLDSFRKDRAQHRQRQCKLPPPRLPPMCVNPTPGGTISRASRDLLKEFPQPKNLLNSVIGRALGISHAKDKLVYVHTNGPKKKKVTLHIKWPKSVEVEGYGSKKIDAERQAAAAACQLFKGWGLLGPRNELFDAAKYRVLADRFGSPADSWWRPEPTMPPTSWRQLNPESIRPGGPGGLSRSLGREEEEDEEEELEEGTIDVTDFLSMTQQDSHAPLRDSRGSSFEMTDDDSAIRALTQFPLPKNLLAKVIQIATSSSTAKNLMQFHTVGTKTKLSTLTLLWPCPMTFVAKGRRKAEAENKAAALACKKLKSLGLVDRNNEPLTHAMYNLASLRELGETQRRPCTIQVPEPILRKIETFLNHYPVESSWIAPELRLQSDDILPLGKDSGPLSDPITGKPYVPLLEAEEVRLSQSLLELWRRRGPVWQEAPQLPVDPHRDTILNAIEQHPVVVISGDTGCGKTTRIPQLLLERYVTEGRGARCNVIITQPRRISAVSVAQRVSHELGPSLRRNVGFQVRLESKPPSRGGALLFCTVGILLRKLQSNPSLEGVSHVIVDEVHERDVNTDFLLILLKGLQRLNPALRLVLMSATGDNERFSRYFGGCPVIKVPGFMYPVKEHYLEDILAKLGKHQYLHRHRHHESEDECALDLDLVTDLVLHIDARGEPGGILCFLPGWQEIKGVQQRLQEALGMHESKYLILPVHSNIPMMDQKAIFQQPPVGVRKIVLATNIAETSITINDIVHVVDSGLHKEERYDLKTKVSCLETVWVSRANVIQRRGRAGRCQSGFAYHLFPRSRLEKMVPFQVPEILRTPLENLVLQAKIHMPEKTAVEFLSKAVDSPNIKAVDEAVILLQEIGVLDQREYLTTLGQRLAHISTDPRLAKAIVLAAIFRCLHPLLVVVSCLTRDPFSSSLQNRAEVDKVKALLSHDSGSDHLAFVRAVAGWEEVLRWQDRSSRENYLEENLLYAPSLRFIHGLIKQFSENIYEAFLVGKPSDCTLASAQCNEYSEEEELVKGVLMAGLYPNLIQVRQGKVTRQGKFKPNSVTYRTKSGNILLHKSTINREATRLRSRWLTYFMAVKSNGSVFVRDSSQVHPLAVLLLTDGDVHIRDDGRRATISLSDSDLLRLEGDSRTVRLLKELRRALGRMVERSLRSELAALPPSVQEEHGQLLALLAELLRGPCGSFDVRKTADD
Molecule B6 had a Total of 1 and a Unique of 1.

B7: GCAT (protein, UniProt O75600 22-419, looked up)
2-amino-3-ketobutyrate …: SALAQLRGILEGELEGIRGAGTWKSERVITSRQGPHIRVDGVSGGILNFCANNYLGLSSHPEVIQAGLQALEEFGAGLSSVRFICGTQSIHKNLEAKIARFHQREDAILYPSCYDANAGLFEALLTPEDAVLSDELNHASIIDGIRLCKAHKYRYRHLDMADLEAKLQEAQKHRLRLVATDGAFSMDGDIAPLQEICCLASRYGALVFMDECHATGFLGPTGRGTDELLGVMDQVTIINSTLGKALGGASGGYTTGPGPLVSLLRQRARPYLFSNSLPPAVVGCASKALDLLMGSNTIVQSMAAKTQRFRSKMEAAGFTISGASHPICPVMLGDARLASRMADDMLKRGIFVIGFSYPVVPKGKARIRVQISAVHSEEDIDRCVEAFVEVGRLHGALP
Molecule B7 displayed a Total of 1 and a Unique of 1.
